Source: patent US20160257728A1
Results are given in words; binding and its absence hold for the method and conditions named. Some binding calls cover weakened binding; strength is not graded here. For some of these results: Tags and fused reporters may be left off the sequences shown.

Amino acid sequences for entries named in this document (tags omitted). Residues count along the entry.
UniProt P37023, residues 22-118: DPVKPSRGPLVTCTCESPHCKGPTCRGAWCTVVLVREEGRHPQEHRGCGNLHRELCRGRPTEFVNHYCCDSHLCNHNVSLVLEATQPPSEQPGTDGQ
UniProt P27037: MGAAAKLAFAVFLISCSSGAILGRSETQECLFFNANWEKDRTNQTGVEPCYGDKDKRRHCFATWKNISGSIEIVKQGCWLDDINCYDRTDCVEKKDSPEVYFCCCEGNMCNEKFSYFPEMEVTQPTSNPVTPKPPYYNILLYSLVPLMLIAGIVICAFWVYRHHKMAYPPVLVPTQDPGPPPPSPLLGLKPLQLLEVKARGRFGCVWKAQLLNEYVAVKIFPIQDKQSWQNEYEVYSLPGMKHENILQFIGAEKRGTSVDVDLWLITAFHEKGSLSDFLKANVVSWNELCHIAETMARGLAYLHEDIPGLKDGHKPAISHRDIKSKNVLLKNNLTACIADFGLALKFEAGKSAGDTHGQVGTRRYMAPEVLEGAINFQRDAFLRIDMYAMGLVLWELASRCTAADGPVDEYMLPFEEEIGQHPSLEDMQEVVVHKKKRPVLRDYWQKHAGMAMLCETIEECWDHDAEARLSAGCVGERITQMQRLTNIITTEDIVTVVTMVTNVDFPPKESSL

What was measured:
[1] = biological target: ALK1 ECD-Fc (human) (UniProt P37023); assay: receptor binding analysis (SPR)
[2] = biological target: T1, BMPRII ECD-Fc (human) (UniProt Q13873); assay: receptor binding analysis (SPR)
T1 sequence (looked up): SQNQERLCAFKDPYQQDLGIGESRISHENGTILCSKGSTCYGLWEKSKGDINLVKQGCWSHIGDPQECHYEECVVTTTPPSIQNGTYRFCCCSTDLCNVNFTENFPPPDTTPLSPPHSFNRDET

[3] = biological target: T2, ActRIIb ECD-Fc (human) (UniProt Q13705); assay: receptor binding analysis (SPR)
T2 sequence (looked up): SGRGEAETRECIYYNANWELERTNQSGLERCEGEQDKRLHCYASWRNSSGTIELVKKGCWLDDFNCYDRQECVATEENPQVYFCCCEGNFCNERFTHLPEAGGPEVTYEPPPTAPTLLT

[4] = biological target: ALK1 ECD-Fc (human) (UniProt P37023); assay: SPR, immobilised receptor ECDs
[5] = biological target: T1, BMPRII ECD-Fc (human); assay: SPR, immobilised receptor ECDs
[6] = biological target: T2, ActRIIb ECD-Fc (human); assay: SPR, immobilised receptor ECDs
[7] = biological target: ActRIIa ECD-Fc (human) (UniProt P27037); assay: SPR, immobilised receptor ECDs

Measured: binding

B1: MB109 protein (bioactive recombinant human BMP-9 expressed in E. coli and refolded; functional dimer) (ligand)
chain: MSAGAGSHCQKTSLRVNFEDIGWDSWIIAPKEYEAYECKGGCFFPLADDVTPTKHAIVQTLVHLKFPTKVGKACCVPTKLSPISVLYKDDMGVPTLKYHYEGMSVAECGCR
binds: all assays above
